Experimental data from patent US9180094B2, “High porosity materials, scaffolds, and method of making” (The Texas A&M University System, priority 2011, dated 2015).

assay: Tack-free time studies of polyHIPE emulsions with different initiators; format: physicochemical; details: emulsions prepared with 5 wt. % initiator; preliminary tack-free time studies

| Molecule | time to cure of polyHIPE emulsion |
| --- | --- |
| CC(C)(C#N)N=NC(C)(C)C#N [AIBN, azobis-isobutyronitrile] | about 1.5 hours |
| O=C(OOC(=O)c1ccccc1)c1ccccc1 [BPO, benzoyl peroxide] | about 1.5 hours |
| N.N.O=S(=O)(O)OOS(=O)(=O)O [ammonium persulfate] | 7 to 12 h |

assay: PFDMA HIPE formation with surfactants; format: physicochemical; details: surfactant, DI water (2, 0.4, 8 g) vortexed 5 minutes

| Molecule | HIPE Formed |
| --- | --- |
| CCCCCCCC/C=C\CCCCCCCC(=O)OCCOCC(OCCO)C1OCC(OCCO)C1OCCO (stereo not drawn) [Tween 80] | no |
| PEG 600 Dilaurate | no |
| Span 85 | no |
| polyglycerol polyricinoleate [PGPR 4125] | yes |
| sorbitan monooleate [Span 80] | did not stabilize and no |

same assay, conditions: surfactant, DI water (2, 0.4, 8 g) vortexed 5 minutes, listed as PGPR

| Molecule | HIPE Formed |
| --- | --- |
| polyglycerol polyricinoleate [PGPR 4125] | form stable HIPE |
